The values that follow come from PMC6021170.

One test deals with T1, human corin WT (human) (UniProt Q9Y5Q5).
T1 sequence: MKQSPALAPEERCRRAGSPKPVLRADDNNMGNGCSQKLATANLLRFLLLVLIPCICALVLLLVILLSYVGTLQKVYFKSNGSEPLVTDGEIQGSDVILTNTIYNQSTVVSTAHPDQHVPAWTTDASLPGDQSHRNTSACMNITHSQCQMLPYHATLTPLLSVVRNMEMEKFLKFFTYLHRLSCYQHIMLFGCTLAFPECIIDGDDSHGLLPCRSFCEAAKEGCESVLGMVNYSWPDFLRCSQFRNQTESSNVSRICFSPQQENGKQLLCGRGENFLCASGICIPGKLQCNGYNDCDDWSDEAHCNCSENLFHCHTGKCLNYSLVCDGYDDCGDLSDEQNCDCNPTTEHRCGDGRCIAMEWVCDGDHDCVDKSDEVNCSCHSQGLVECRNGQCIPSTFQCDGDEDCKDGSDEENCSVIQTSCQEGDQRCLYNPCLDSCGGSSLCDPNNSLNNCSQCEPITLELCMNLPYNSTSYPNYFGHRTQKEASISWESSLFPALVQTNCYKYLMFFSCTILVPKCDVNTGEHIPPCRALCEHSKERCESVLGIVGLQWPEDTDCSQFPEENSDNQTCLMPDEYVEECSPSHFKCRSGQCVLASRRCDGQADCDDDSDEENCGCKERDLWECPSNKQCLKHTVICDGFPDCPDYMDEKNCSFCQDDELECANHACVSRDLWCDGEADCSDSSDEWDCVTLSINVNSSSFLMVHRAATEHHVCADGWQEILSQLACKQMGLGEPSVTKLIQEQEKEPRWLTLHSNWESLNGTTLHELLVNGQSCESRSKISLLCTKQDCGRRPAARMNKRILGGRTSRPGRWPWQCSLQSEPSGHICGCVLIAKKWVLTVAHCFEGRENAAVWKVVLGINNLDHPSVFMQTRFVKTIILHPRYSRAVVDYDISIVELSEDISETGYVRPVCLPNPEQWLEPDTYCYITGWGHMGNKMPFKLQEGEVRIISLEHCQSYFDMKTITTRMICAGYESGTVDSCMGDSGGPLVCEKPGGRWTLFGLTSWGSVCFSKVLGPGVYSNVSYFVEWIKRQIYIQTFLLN
Description: co-IP; lysates of transfected HEK293 cells immunoprecipitated with anti-V5 antibody and protein A-Sepharose; co-precipitated endogenous chaperones detected by western blotting and densitometry; cells without or with DNJ (2 mM, 37°C, 24-48 hr). (In general: A western blot detects proteins with antibodies after separation by electrophoresis.)

The target of test [1] is T2, human corin mutant N1022Q (human) (UniProt Q9Y5Q5).
T2 sequence: T1 sequence with N1022Q
Described as above.

Positions count from the first letter of the chain named. No constants are given. Whether binding was seen depends on the method and setting. Binding seen in cells or lysates may run through a third protein. Binding calls can cover weak binding; strength is not graded here.

As to HSP70 (human (endogenous in HEK293)), the binding entry (in the test with human corin WT (human); in test [1]) was “binds” throughout.
